Source: paper doi:10.1101/2022.12.30.522309
These are yes or no findings as the source states them, for the method shown. Binding seen in cells or lysates may run through a third protein. Some binding calls cover weakened binding; strength is not graded here.

Protein sequences, listed by entry. Tags and fused reporters are not part of them.
UniProt P32121: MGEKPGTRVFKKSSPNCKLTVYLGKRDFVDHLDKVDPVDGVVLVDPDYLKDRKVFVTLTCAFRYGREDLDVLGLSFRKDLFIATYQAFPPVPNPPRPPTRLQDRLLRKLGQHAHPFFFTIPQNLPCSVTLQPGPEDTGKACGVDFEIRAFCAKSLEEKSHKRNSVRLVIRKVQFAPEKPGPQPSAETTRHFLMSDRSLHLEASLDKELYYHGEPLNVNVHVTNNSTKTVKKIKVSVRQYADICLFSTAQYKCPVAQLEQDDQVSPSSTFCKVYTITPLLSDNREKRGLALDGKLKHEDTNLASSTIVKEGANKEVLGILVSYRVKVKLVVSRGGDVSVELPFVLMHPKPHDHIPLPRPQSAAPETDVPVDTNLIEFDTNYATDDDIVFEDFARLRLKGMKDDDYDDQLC

Target: T1, FFA2R-LgBiT (human) (UniProt O15552)
T1 sequence: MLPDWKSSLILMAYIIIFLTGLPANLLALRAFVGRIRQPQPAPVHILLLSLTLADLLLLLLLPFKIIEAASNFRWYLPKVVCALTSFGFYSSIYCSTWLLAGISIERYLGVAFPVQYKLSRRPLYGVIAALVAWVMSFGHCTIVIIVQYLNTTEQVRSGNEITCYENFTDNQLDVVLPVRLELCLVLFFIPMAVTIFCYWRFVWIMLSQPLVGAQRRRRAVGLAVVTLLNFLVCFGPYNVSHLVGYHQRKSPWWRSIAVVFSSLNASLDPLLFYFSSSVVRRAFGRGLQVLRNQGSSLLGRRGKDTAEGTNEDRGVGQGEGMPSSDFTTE
Assay: split reporter

“SmBiT-β-arrestin2 (from UniProt P32121 1-409)” was tested, and the binding was “binds”.
